# Experimental data as given in patent US20240306670A1, “BERBERINE ALKALOIDS IN THE PREVENTION AND/OR TREATMENT OF INTESTINAL DISEASE” (priority 2017, published 2024).
# “Also recorded” adds a separate entry of the source.
# Legend:
# [1] = test system: Eimeria species (mainly E. acervulina); settings: in vivo
# [2] = Feed palatability, feed and water consumption and bird productivity study (Example 2); type: in vivo, broiler chickens; settings: for water intake: vs untreated
# Excerpt: A follow-up study to determine the feed palatability, feed and water consumption and bird productivity following incorporation of a single formulation of IRP001 hemisulfate salt (unmasked) when offered to broiler chickens in-feed or in-water. The study explores the optimal treatment regime in terms of treatment start date.
# Phase 1: On receipt, two hundred and seventy (270) day-old commercial broiler chickens were allocated sequentially as they are received into sixteen (16) individual floor pens, each of 16 or 17 birds, on Day 0.
# Phase 2: On receipt, the ninety (90) day-old commercial broiler chickens were allocated sequentially as they are received into four (4) individual floor pens, each of 22 or 23 birds, on Day 22.
# Feed intake, water intake, weight gain and mortality were used as outcome parameters.
# Individual daily feed intake and individual daily water intake data by pen and then by treatment group were calculated for Phases 1 and 2 (and for the entire trial for the birds in Group/Pen 2, 15 and 16 that continue through both Phases) using figures for total feed and water provided each day to each pen divided by the number of birds in each pen. Where errors in weighing, feeding/watering or recording (or other unexplained losses of feed and water) had occurred means were adjusted by using the mean value for the same pen on the 1-2 days either side of the apparent error. Similarly, group mean bodyweights were calculated for Phase 1 using total weight/total no. birds for Day 0 and individual weights from Days 7, 14, 21, 28, 35 and 42. Total (individual) feed consumed was calculated per treatment and feed conversion ratios per treatment calculated using the expression: total (individual) feed/total (individual) weight gain.
# Individual daily feed intake and individual daily water intake were statistically compared by treatment within each phase and between Pens 2 and 15/16 over both phases using a linear model:—
# and Tibco SPOTFIRE S+ 8.2 (2010). ‘Day’ was included in the model to allow for changes over time, ‘Pen’ as each treatment consisted of 2 pens while an interaction term ‘Treatment:Day’ was included to allow for treatment×time effects. Model suitability was confirmed by inspection of residual plots; in all instances the statistical model was appropriate.
# [3] = Phase 1+2, pen 2 untreated vs 15/16 treated in-water day 6-42
Compound,feed consumed over the trial [1],"difference in feed eaten over the total trial, untreated vs treated [2, 3]","water intake over the total trial [2, 3]","water intake ([2]; Phase 1, unmasked, 1.0 g/L in drinking water over varying periods)","water intake ([2]; Phase 2, 2 g/kg in-feed days 25-42)","feed consumed ([2]; treated birds, in-water days 6-42)"
"COc1ccc2cc3[n+](cc2c1OC)CCc1cc2c(cc1-3)OCO2 [IRP001 chloride, berberine chloride]",consumed less feed over the trial than any other group,,,,,
berberine hemisulfate [IRP001 sulfate],,~0.14 kg,untreated birds drinking more water,drank less water; also recorded: tended to drink less water,drinking more water; also recorded: tended to drink more water,3.84 kg
